Test results as given in the supplement of paper PMC10338343.
± gives the standard deviation. The list shows a part of the results. Many of these values have a large error.

Each sequence was assayed on EfPiwi piRISC loaded with L1MC piRNA (26 nt) (assay: pre-steady-state target cleavage rate (min^-1); guide: L1MC piRNA 5'p-UAACUAAAUACUAUGCAAGCUGUAGG; MIWI and MILI are mouse PIWI proteins and EfPiwi is from a freshwater sponge; tags in brackets are library labels; higher = faster piRNA-guided slicing of the target). Details: auxiliary factor: none (no Gtsf1).
How it was run: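 A burst-and-steady-state fit was used to obtain the pre-steady-state cleavage rate. The input data were sequencing reads of uncleaved targets, normalised to depth and to weakly complementary targets, from a […] transcribed, DNA-blocked target RNA library mixed with 1 nM active affinity-purified piRISC holding one synthetic guide, with or without 500 nM GTSF1 partner protein, in HEPES–potassium acetate buffer at 33 °C for 0–8 or 0–960 min. Three trials were pooled and k3 was capped at 0.0001 min^-1.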

Sequence	pre-steady-state target cleavage rate
UCCUGGAUGUCGAACGAUUAGUAUUUAGUUA	0.000103 ± 0.022
UCCUGGAUGAGCUAGCAUAGUAUAUAGUUA	0.000515 ± 0.012
UCCUGGAACAGCGUUGCAUAGUAUUUAGUUA	0.00185 ± 0.0057
UCCUGCUACAGCUUGCAGAGUAUUUAGUUA	0.000916 ± 0.006
UCCUGGAUGAGCUAGCAUAGUAAUUAGUUA	0.000282 ± 0.029
UCCUCCUACAGCUUGCAUAGUAUUUAGAAA	0.000846 ± 0.0079
UCCUGCUACAGCUUGCAUAGUAUUUACAUA	0.00027 ± 0.023
UCCUGGAUGUGCUUGCAUAGUAUUUAGUUC [g2:g20:cont:t1C]	0.0019 ± 0.0057
UCCUCCUACAGCUUGCAAAGUAAUUAGUUA	0.000772 ± 0.0084
UCCUGGAUGUCGAACGUAUGUAUCUUAGUUA	0.000147 ± 0.032
UCCUGGUACAGCUGGCAUAGUAUUUAGUUA	0.00103 ± 0.011
UCCUGGUACAGGUUGCAAAGUAUUUAGUUA	0.000721 ± 0.013
UCCUGCUACAGCAUGCAAAGUAUUUAGUUA	0.000154 ± 0.019
UCCUGGAUGUCGUUGCAUAGUAUUUAGUUUA	0.000676 ± 0.015
UCCUGGAUGUCGAACGAUAGUAUUUAGAAA [g4:g14:cont:t1A]	< 0.0001

2 records drawn at random from those above:
Sequence	pre-steady-state target cleavage rate
UCCUGGAUGUCGAACGUAUGUAUCUUAGUUA	0.000147 ± 0.032
UCCUGCUACAGCUUGCAUAGUAUUUACAUA	0.00027 ± 0.023
